Measured values reported in the supplement of paper PMC12823440, “Inhibitors supercharge kinase turnover through native proteolytic circuits” (Nature, 2025).
Counter-ions that a name gives are not always drawn. The list shows a part of the results. The calls rarely recur for the same compound in another form.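 In K562 cells expressing nanoluciferase-fused kinases, luminescence was recorded at 4 h intervals between 2 and 18 h, normalized as percent of control with DMSO at 100% and a positive control at 0%. A significant (2 sigma) signal drop marks a time point as decreased. The authors' rule for a hit is not shown and takes in more than the number of time points.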

Amino acid sequences for entries named in this document (tags omitted). A change or cut given only in a name is not applied to a line headed by its entry.
UniProt Q9Y616: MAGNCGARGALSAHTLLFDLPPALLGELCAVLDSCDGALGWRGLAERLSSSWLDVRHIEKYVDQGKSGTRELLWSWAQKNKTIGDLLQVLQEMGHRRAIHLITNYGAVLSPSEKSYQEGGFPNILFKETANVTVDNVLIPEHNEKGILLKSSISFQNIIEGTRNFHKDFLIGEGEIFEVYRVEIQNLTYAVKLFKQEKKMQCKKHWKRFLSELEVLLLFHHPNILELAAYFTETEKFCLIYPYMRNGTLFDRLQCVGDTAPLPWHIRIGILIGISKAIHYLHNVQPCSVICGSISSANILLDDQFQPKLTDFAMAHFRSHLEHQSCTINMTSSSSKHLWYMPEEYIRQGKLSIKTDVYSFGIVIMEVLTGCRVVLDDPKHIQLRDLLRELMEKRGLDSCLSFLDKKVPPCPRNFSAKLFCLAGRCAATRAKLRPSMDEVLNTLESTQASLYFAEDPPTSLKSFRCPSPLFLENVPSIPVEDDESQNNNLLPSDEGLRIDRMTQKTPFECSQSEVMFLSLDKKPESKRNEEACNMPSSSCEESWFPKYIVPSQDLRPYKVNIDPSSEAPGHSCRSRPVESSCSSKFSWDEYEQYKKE
UniProt P53667: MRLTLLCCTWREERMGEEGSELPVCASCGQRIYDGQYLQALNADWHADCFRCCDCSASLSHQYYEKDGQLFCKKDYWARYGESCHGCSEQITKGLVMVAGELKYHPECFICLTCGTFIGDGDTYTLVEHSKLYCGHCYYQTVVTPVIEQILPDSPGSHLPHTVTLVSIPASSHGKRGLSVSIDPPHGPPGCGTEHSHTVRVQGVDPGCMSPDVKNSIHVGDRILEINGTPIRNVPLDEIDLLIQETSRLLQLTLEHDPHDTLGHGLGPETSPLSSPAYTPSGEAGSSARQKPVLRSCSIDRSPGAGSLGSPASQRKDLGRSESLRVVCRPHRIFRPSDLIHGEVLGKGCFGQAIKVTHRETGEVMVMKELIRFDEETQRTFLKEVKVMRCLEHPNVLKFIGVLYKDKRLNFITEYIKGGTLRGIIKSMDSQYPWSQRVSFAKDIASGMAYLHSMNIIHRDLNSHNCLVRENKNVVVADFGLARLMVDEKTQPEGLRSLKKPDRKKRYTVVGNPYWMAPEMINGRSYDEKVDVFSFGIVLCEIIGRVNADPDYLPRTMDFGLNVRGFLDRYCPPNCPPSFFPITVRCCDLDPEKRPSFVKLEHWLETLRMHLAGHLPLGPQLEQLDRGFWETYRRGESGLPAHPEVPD
UniProt P53671: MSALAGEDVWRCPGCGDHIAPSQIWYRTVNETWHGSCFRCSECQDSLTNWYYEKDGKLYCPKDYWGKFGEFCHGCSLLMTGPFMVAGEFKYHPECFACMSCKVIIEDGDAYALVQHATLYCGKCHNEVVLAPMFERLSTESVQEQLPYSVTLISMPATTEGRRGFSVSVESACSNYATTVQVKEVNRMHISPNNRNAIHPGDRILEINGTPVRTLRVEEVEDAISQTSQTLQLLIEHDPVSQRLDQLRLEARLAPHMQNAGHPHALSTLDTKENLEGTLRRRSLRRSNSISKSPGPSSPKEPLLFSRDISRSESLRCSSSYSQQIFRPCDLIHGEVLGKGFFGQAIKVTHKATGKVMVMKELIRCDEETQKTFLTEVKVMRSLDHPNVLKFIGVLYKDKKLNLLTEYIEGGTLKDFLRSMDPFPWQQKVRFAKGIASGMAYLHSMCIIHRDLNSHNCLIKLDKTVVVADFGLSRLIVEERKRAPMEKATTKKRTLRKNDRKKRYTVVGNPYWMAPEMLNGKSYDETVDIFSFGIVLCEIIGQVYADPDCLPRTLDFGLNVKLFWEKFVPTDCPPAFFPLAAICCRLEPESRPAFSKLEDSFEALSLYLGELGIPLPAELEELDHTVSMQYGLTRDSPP
UniProt Q8IWU2: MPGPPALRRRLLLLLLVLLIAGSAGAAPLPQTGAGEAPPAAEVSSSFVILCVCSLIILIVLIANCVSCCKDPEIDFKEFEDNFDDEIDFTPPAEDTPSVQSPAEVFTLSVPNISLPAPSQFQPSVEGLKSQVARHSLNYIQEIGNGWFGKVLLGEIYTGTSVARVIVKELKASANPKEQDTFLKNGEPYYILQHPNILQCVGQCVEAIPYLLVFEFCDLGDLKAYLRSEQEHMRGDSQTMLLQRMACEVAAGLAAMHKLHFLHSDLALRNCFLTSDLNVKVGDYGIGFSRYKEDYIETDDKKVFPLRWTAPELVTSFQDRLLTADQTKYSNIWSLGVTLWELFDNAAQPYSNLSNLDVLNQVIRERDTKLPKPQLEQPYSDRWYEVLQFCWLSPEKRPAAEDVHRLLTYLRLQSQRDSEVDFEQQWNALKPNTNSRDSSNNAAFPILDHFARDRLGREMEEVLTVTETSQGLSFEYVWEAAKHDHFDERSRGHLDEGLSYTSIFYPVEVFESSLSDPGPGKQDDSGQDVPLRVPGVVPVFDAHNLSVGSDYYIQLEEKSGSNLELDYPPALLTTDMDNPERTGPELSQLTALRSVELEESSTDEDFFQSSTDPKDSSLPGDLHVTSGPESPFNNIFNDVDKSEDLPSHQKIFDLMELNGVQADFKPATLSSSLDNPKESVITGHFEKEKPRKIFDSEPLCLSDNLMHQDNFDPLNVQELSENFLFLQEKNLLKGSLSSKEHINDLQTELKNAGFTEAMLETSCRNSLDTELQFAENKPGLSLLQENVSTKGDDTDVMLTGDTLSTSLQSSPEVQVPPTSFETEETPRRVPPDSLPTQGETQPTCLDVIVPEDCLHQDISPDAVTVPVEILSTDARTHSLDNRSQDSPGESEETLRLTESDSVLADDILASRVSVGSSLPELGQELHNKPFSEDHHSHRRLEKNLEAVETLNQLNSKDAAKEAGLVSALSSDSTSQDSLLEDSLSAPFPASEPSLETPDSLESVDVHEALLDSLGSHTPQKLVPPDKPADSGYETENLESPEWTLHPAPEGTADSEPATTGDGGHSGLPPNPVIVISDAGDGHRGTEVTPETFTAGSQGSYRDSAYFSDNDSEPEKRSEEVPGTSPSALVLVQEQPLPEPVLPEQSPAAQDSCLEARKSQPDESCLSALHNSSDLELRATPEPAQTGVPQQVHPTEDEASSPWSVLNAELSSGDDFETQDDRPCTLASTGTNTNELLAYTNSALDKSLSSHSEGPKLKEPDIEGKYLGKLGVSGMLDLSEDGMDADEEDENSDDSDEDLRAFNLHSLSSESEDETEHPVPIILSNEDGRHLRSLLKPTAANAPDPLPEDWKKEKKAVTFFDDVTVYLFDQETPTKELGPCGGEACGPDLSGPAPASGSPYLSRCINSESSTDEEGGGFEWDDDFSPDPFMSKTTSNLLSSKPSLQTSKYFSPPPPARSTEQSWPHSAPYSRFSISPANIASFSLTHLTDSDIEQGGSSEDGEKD
UniProt P07948: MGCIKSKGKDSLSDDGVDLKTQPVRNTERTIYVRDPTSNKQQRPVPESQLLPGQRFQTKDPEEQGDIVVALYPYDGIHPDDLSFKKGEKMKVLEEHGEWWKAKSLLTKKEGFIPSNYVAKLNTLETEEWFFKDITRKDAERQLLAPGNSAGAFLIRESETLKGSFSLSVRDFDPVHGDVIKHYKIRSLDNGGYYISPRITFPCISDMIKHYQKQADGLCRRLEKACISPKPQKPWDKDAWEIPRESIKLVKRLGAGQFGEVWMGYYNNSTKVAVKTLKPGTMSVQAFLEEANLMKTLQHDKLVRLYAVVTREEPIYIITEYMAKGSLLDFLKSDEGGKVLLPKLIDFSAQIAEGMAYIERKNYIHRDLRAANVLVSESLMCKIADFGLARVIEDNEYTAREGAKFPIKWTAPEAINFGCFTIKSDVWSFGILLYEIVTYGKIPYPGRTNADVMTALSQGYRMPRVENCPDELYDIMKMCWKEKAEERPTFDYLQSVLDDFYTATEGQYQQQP
UniProt P31152, whole entry: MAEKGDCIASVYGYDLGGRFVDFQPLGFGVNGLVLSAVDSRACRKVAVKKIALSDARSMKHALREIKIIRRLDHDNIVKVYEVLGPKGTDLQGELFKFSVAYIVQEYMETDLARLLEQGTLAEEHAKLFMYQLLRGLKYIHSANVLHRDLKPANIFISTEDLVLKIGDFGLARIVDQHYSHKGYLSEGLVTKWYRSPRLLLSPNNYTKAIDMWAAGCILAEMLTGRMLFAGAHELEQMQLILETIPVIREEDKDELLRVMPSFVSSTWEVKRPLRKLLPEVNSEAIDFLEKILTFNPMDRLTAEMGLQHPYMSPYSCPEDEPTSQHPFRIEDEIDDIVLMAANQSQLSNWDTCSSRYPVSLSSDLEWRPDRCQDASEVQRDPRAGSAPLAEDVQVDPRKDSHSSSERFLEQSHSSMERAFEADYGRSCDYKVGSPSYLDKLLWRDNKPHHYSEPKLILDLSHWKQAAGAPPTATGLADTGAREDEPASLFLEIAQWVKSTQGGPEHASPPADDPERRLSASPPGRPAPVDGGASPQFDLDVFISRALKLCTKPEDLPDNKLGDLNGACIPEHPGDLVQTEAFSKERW
UniProt P49137, whole entry, looked up: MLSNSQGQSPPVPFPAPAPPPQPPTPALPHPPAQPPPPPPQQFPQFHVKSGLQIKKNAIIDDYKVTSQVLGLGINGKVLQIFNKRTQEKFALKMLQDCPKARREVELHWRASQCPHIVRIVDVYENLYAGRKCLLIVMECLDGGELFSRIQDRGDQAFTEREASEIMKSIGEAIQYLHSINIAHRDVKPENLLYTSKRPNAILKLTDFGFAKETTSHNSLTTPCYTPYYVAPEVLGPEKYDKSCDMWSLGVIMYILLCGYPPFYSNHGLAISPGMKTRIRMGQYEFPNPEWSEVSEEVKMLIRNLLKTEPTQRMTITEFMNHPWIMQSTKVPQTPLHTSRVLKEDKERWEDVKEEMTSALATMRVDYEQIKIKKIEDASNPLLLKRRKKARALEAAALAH
UniProt Q96KB5: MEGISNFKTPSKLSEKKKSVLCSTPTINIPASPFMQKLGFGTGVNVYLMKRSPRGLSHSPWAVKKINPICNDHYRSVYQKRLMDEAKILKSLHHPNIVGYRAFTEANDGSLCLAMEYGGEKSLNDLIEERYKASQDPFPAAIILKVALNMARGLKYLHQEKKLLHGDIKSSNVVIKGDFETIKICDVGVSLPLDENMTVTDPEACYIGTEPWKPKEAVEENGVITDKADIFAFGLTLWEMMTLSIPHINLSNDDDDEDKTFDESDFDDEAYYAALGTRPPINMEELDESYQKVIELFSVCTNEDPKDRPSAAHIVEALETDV
UniProt P09619, whole entry: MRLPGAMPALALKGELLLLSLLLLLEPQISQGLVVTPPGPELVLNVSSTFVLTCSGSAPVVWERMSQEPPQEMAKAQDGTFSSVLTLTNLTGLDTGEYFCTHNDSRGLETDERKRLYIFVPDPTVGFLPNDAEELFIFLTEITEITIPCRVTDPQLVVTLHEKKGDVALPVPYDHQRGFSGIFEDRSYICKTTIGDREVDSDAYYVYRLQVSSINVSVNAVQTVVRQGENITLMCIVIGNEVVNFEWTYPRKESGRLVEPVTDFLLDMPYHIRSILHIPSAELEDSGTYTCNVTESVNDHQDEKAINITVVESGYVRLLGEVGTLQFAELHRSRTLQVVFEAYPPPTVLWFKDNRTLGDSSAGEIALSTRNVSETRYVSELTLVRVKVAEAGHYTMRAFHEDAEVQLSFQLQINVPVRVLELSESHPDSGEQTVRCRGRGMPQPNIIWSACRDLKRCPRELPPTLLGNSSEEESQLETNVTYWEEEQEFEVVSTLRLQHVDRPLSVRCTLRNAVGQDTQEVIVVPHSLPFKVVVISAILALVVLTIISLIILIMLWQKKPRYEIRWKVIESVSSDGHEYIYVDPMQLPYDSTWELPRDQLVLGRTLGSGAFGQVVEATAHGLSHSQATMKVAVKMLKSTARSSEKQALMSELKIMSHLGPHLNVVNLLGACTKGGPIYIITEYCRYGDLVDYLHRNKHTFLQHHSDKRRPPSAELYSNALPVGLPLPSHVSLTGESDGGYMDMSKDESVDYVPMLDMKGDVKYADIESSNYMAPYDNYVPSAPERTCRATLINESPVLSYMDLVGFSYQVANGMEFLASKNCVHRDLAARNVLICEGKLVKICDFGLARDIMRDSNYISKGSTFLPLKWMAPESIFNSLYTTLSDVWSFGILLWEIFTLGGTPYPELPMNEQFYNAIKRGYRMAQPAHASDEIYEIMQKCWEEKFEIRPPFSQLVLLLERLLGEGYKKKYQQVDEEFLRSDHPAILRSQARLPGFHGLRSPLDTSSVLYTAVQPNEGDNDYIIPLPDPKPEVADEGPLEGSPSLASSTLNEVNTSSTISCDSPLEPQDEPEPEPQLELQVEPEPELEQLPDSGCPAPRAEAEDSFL

Experiments:
Experiment in all cases: kinase-Nluc reporter destabilization hit call (1 = scored as downregulated) (binary); higher = compound decreases kinase abundance
Settings in all cases: K562; 2-18 h
IRAK3 = IRAK3 (UniProt Q9Y616)
JAK1 = JAK1 (UniProt P23458)
LCK = LCK (UniProt P06239)
LIMK1 = LIMK1 (UniProt P53667)
LIMK2 = LIMK2 (UniProt P53671)
LMTK2 = LMTK2 (UniProt Q8IWU2)
LYN = LYN (UniProt P07948)
MAP2K1 = MAP2K1 (UniProt Q02750)
MAP2K2 = MAP2K2 (UniProt P36507)
MAP4K2 = MAP4K2 (UniProt Q12851)
MAPK1 = MAPK1 (UniProt P28482)
MAPK4 = MAPK4 (UniProt P31152)
MAPKAPK2 = MAPKAPK2 (UniProt P49137)
MKNK1 = MKNK1 (UniProt Q9BUB5)
NTRK2 = NTRK2 (UniProt Q16620)
NTRK3 = NTRK3 (UniProt Q16288)
PAK4 = PAK4 (UniProt O96013)
PBK = PBK (UniProt Q96KB5)
PDGFRB = PDGFRB (UniProt P09619)
PDK1 = PDK1 (UniProt Q15118)

Measured: kinase-Nluc reporter destabilization hit call

COc1cc(N2CCOCC2)ccc1NC(=O)c1csc(-c2cccnc2)n1 [IRAK inhibitor 6] (10 µM)
inactive: IRAK3 = 0 | JAK1 = 0 | LCK 0 | LIMK1 = 0 | LIMK2 = 0 | LMTK2 = 0 | LYN 0 | MAP2K1 = 0 | MAP2K2 = 0 | MAP4K2 = 0 | MAPK1 = 0 | MAPK4 = 0 | MAPKAPK2 = 0 | MKNK1 = 0 | NTRK2 = 0 | NTRK3 = 0 | PAK4 = 0 | PBK 0 | PDGFRB 0 | PDK1 = 0

Cc1cc(-c2ccnc(Nc3cnn(C)c3)n2)ccc1CNC(=O)N1CC(OC(C)C)C1 (10 µM)
inactive: IRAK3 = 0 | JAK1 = 0 | LCK 0 | LIMK1 = 0 | LIMK2 = 0 | LMTK2 = 0 | LYN 0 | MAP2K1 = 0 | MAP2K2 = 0 | MAP4K2 = 0 | MAPK1 = 0 | MAPK4 = 0 | MAPKAPK2 = 0 | MKNK1 = 0 | NTRK2 = 0 | NTRK3 = 0 | PAK4 = 0 | PBK 0 | PDGFRB 0 | PDK1 = 0

COc1ccccc1C(=O)/C=C/c1ccccc1C(=O)O (10 µM)
inactive: IRAK3 = 0 | JAK1 = 0 | LCK 0 | LIMK1 = 0 | LIMK2 = 0 | LMTK2 = 0 | LYN 0 | MAP2K1 = 0 | MAP2K2 = 0 | MAP4K2 = 0 | MAPK1 = 0 | MAPK4 = 0 | MAPKAPK2 = 0 | MKNK1 = 0 | NTRK2 = 0 | NTRK3 = 0 | PAK4 = 0 | PBK 0 | PDGFRB 0 | PDK1 = 0

Nc1nccc(Oc2ccc(NC(=O)c3c[nH]cc(-c4ccc(F)cc4)c3=O)cc2F)c1Cl (10 µM)
inactive: IRAK3 = 0 | JAK1 = 0 | LCK 0 | LIMK1 = 0 | LIMK2 = 0 | LMTK2 = 0 | LYN 0 | MAP2K1 = 0 | MAP2K2 = 0 | MAP4K2 = 0 | MAPK1 = 0 | MAPK4 = 0 | MAPKAPK2 = 0 | MKNK1 = 0 | NTRK2 = 0 | NTRK3 = 0 | PAK4 = 0 | PBK 0 | PDGFRB 0 | PDK1 = 0

CN1C(=O)[C@@H](NC(=O)c2n[nH]c(Cc3ccccc3)n2)COc2ccccc21 (10 µM)
inactive: IRAK3 = 0 | JAK1 = 0 | LCK 0 | LIMK1 = 0 | LIMK2 = 0 | LMTK2 = 0 | LYN 0 | MAP2K1 = 0 | MAP2K2 = 0 | MAP4K2 = 0 | MAPK1 = 0 | MAPK4 = 0 | MAPKAPK2 = 0 | MKNK1 = 0 | NTRK2 = 0 | NTRK3 = 0 | PAK4 = 0 | PBK 0 | PDGFRB 0 | PDK1 = 0

N[C@@H](CCC(=O)O)C(=O)N[C@@H](Cc1c[nH]c2ccccc12)C(=O)O [Oglufanide] (10 µM)
inactive: IRAK3 = 0 | JAK1 = 0 | LCK 0 | LIMK1 = 0 | LIMK2 = 0 | LMTK2 = 0 | LYN 0 | MAP2K1 = 0 | MAP2K2 = 0 | MAP4K2 = 0 | MAPK1 = 0 | MAPK4 = 0 | MAPKAPK2 = 0 | MKNK1 = 0 | NTRK2 = 0 | NTRK3 = 0 | PAK4 = 0 | PBK 0 | PDGFRB 0 | PDK1 = 0

Nc1cccc(-c2cc3c(Oc4cccc(O)c4)ncnc3[nH]2)c1 (10 µM)
inactive: IRAK3 = 0 | JAK1 = 0 | LCK 0 | LIMK1 = 0 | LIMK2 = 0 | LMTK2 = 0 | LYN 0 | MAP2K1 = 0 | MAP2K2 = 0 | MAP4K2 = 0 | MAPK1 = 0 | MAPK4 = 0 | MAPKAPK2 = 0 | MKNK1 = 0 | NTRK2 = 0 | NTRK3 = 0 | PAK4 = 0 | PBK 0 | PDGFRB 0 | PDK1 = 0

Nc1ncnc2c1c(-c1ccc(Oc3ccccc3)cc1)nn2C1CCN(CCOCCOCCOc2ccc3c(c2)CN(C2CCC(=O)NC2=O)C3=O)CC1 (stereo not given) (2.5 µM)
inactive: IRAK3 = 0 | JAK1 = 0 | LCK 0 | LIMK1 = 0 | LIMK2 = 0 | LMTK2 = 0 | LYN 0 | MAP2K1 = 0 | MAP2K2 = 0 | MAP4K2 = 0 | MAPK1 = 0 | MAPK4 = 0 | MAPKAPK2 = 0 | MKNK1 = 0 | NTRK2 = 0 | NTRK3 = 0 | PAK4 = 0 | PBK 0 | PDGFRB 0 | PDK1 = 0

CC(C)CCNC(=O)c1ccc2c(c1)nc(Nc1n[nH]c3ccc(-c4ccccc4OC(F)(F)F)cc13)n2C1CCC(O)CC1 (stereo not drawn) [IRAK inhibitor 4 (trans)] (10 µM)
inactive: IRAK3 = 0 | JAK1 = 0 | LCK 0 | LIMK1 = 0 | LIMK2 = 0 | LMTK2 = 0 | LYN 0 | MAP2K1 = 0 | MAP2K2 = 0 | MAP4K2 = 0 | MAPK1 = 0 | MAPK4 = 0 | MAPKAPK2 = 0 | MKNK1 = 0 | NTRK2 = 0 | NTRK3 = 0 | PAK4 = 0 | PBK 0 | PDGFRB 0 | PDK1 = 0

O=C1NC(=O)C(c2cnc3ccccn23)=C1c1cn2c3c(cc(F)cc13)CNCC2 [GSK-3 inhibitor 1] (2.5 µM)
inactive: IRAK3 = 0 | JAK1 = 0 | LCK 0 | LIMK1 = 0 | LIMK2 = 0 | LMTK2 = 0 | LYN 0 | MAP2K1 = 0 | MAP2K2 = 0 | MAP4K2 = 0 | MAPK1 = 0 | MAPK4 = 0 | MAPKAPK2 = 0 | MKNK1 = 0 | NTRK2 = 0 | NTRK3 = 0 | PAK4 = 0 | PBK 0 | PDGFRB 0 | PDK1 = 0

COc1cc(N(C)CCN(C)C)c(N)cc1Nc1nccc(-c2cn(C)c3ccccc23)n1 [Mutated EGFR-IN-1] (10 µM)
inactive: IRAK3 = 0 | JAK1 = 0 | LCK 0 | LIMK1 = 0 | LIMK2 = 0 | LMTK2 = 0 | LYN 0 | MAP2K1 = 0 | MAP2K2 = 0 | MAP4K2 = 0 | MAPK1 = 0 | MAPK4 = 0 | MAPKAPK2 = 0 | MKNK1 = 0 | NTRK2 = 0 | NTRK3 = 0 | PAK4 = 0 | PBK 0 | PDGFRB 0 | PDK1 = 0

COc1ccc(-c2c(C)nn3c(NCCN4CCOCC4)cc(C)nc23)cc1OC (10 µM)
inactive: IRAK3 = 0 | JAK1 = 0 | LCK 0 | LIMK1 = 0 | LIMK2 = 0 | LMTK2 = 0 | LYN 0 | MAP2K1 = 0 | MAP2K2 = 0 | MAP4K2 = 0 | MAPK1 = 0 | MAPK4 = 0 | MAPKAPK2 = 0 | MKNK1 = 0 | NTRK2 = 0 | NTRK3 = 0 | PAK4 = 0 | PBK 0 | PDGFRB 0 | PDK1 = 0

C=CC(=O)Nc1cc(-n2c(=O)ccc3cnc4ccc(-c5ccc(NS(C)(=O)=O)cc5)cc4c32)ccc1C (10 µM)
inactive: IRAK3 = 0 | JAK1 = 0 | LCK 0 | LIMK1 = 0 | LIMK2 = 0 | LMTK2 = 0 | LYN 0 | MAP2K1 = 0 | MAP2K2 = 0 | MAP4K2 = 0 | MAPK1 = 0 | MAPK4 = 0 | MAPKAPK2 = 0 | MKNK1 = 0 | NTRK2 = 0 | NTRK3 = 0 | PAK4 = 0 | PBK 0 | PDGFRB 0 | PDK1 = 0

Cc1ccc(C(=O)Nc2sc(Nc3ccccc3)nc2C(N)=O)cc1 (10 µM)
inactive: IRAK3 = 0 | JAK1 = 0 | LCK 0 | LIMK1 = 0 | LIMK2 = 0 | LMTK2 = 0 | LYN 0 | MAP2K1 = 0 | MAP2K2 = 0 | MAP4K2 = 0 | MAPK1 = 0 | MAPK4 = 0 | MAPKAPK2 = 0 | MKNK1 = 0 | NTRK2 = 0 | NTRK3 = 0 | PAK4 = 0 | PBK 0 | PDGFRB 0 | PDK1 = 0

CC(C)N1CCN(c2ccc(Nc3ncc4cc5n(c4n3)C3(CCCCC3)CNC5=O)nc2)CC1 [Lerociclib (dihydrochloride)] (2 µM)
inactive: IRAK3 = 0 | JAK1 = 0 | LCK 0 | LIMK1 = 0 | LIMK2 = 0 | LMTK2 = 0 | LYN 0 | MAP2K1 = 0 | MAP2K2 = 0 | MAP4K2 = 0 | MAPK1 = 0 | MAPK4 = 0 | MAPKAPK2 = 0 | MKNK1 = 0 | NTRK2 = 0 | NTRK3 = 0 | PAK4 = 0 | PBK 0 | PDGFRB 0 | PDK1 = 0

CCc1ccc(OCC(=O)Nc2ccc(F)c([N+](=O)[O-])c2)cc1 (10 µM)
inactive: IRAK3 = 0 | JAK1 = 0 | LCK 0 | LIMK1 = 0 | LIMK2 = 0 | LMTK2 = 0 | LYN 0 | MAP2K1 = 0 | MAP2K2 = 0 | MAP4K2 = 0 | MAPK1 = 0 | MAPK4 = 0 | MAPKAPK2 = 0 | MKNK1 = 0 | NTRK2 = 0 | NTRK3 = 0 | PAK4 = 0 | PBK 0 | PDGFRB 0 | PDK1 = 0

COc1cc2ncnc(-n3nc(-c4ccccn4)nc3N)c2cc1OC (10 µM)
inactive: IRAK3 = 0 | JAK1 = 0 | LCK 0 | LIMK1 = 0 | LIMK2 = 0 | LMTK2 = 0 | LYN 0 | MAP2K1 = 0 | MAP2K2 = 0 | MAP4K2 = 0 | MAPK1 = 0 | MAPK4 = 0 | MAPKAPK2 = 0 | MKNK1 = 0 | NTRK2 = 0 | NTRK3 = 0 | PAK4 = 0 | PBK 0 | PDGFRB 0 | PDK1 = 0

Nc1c(C(=O)NCc2ccc(C(=O)NCCCC3CCCCC3)cc2)cnn1-c1ccccc1 (2.5 µM)
inactive: IRAK3 = 0 | JAK1 = 0 | LCK 0 | LIMK1 = 0 | LIMK2 = 0 | LMTK2 = 0 | LYN 0 | MAP2K1 = 0 | MAP2K2 = 0 | MAP4K2 = 0 | MAPK1 = 0 | MAPK4 = 0 | MAPKAPK2 = 0 | MKNK1 = 0 | NTRK2 = 0 | NTRK3 = 0 | PAK4 = 0 | PBK 0 | PDGFRB 0 | PDK1 = 0
